Laboratory results taken from US20200347144A1.
Results are given in words; binding and its absence hold for the method and conditions named. Binding can be weak; no strength is given.

Molecular target: monkey 4-1BB-his protein (monkey)
Assay: ELISA: monkey 4-1BB-his coated at 1.0 µg/mL, antibody titrated, HRP secondary antibody, OD450

- binding: binds
B1: 119B6G5 (antibody, V domains shown)
VH: EVQLLESGGGLVQPGGSLRLSCAASGFTFSNYAMSWVRQGPGKGLEWVSTIIGSGDSTYYTDSVKGRFTISRDNSKNTLFLQMNSLRAEDTAVYYCARDKSGWYYFDYWGQGTLVTVSS
VL: DIQMTQSPSTLSASVGDRVTITCRASQSISNWLAWYQQKPGKAPKLLIYKASSLESGVPSRFSGSGSGTEFTLTISSLQPDDFATYYCQQYNDYFPITFGQGTRLEIK
